Test results from article doi:10.1101/2021.02.02.429361 (bioRxiv, 2021).
Results are given in words; binding and its absence hold for the method and conditions named. A result given as binding can be weak or reduced; the word gives no strength. Where a sequence is shown, tags or fusion partners need not be part of it.

Molecular target: T1, AtMPK3 (mitogen activated protein kinase-3), full length, yeast two-hybrid fusion (Arabidopsis thaliana) (UniProt Q39023)
T1 sequence: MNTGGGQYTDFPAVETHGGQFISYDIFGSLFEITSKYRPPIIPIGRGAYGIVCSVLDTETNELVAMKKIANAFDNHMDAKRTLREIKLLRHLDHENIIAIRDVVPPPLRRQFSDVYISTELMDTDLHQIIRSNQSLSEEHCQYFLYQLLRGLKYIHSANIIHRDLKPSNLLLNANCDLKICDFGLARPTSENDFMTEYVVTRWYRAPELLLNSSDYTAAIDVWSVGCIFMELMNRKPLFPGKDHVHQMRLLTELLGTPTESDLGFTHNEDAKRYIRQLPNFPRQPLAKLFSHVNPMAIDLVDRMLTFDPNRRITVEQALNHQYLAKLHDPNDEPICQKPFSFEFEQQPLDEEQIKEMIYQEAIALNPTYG
Experiment: two-hybrid

binding | Substance
no binding | AtABI5 C-terminal variant (ABI5C), yeast two-hybrid fusion (Arabidopsis thaliana) (domain or fragment)
binds | AtABI5 N-terminal variant (ABI5N), yeast two-hybrid fusion (Arabidopsis thaliana) (domain or fragment)
